PubChem BioAssay AID1508597 | Cure First, 2020
Shown is a random part of the about 2,100 reagents, under one of the conditions tested. 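Calls flag viability under 80% in either arm, not effects specific to rucaparib; the reference for percent is not stated.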 Unmarked entries are inactive. The record does not give: the 100% reference.

- Screen: 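Genes whose silencing sensitises or protects ovarian cancer cells against rucaparib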 (primary screen)
- Cells: human ovarian carcinoma lines grown from tumours: OCI-P5x (papillary serous) and OCI-C5x (clear cell)
- Knock-down reagent: siRNA pool against human genes, 1.25 pmol siRNA per well
- Duration: 72 h or 96 h, depending on the cell culture
- Challenge: rucaparib 20 µM (about IC30) or vehicle, present until read-out
- Rucaparib or vehicle: Vehicle
- Cell line: OCI-P5x (serous)
- Detection: 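ATP luminescence measured at 72 or 96 h according to the culture, then normalised and expressed as percent viability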
- Scale: viability, normalised: higher = more viable cells remaining
- Call rule: 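a well counts as a hit if its normalised viability is under 80 percent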
- Calls: active = viability under 80%; inactive = viability 80% or more

| target | technical replicate | viability, normalised (%) |
| --- | --- | --- |
| FBXL19 | 1 | 67.3 (active) |
| FBXL19 | 2 | 78.3 (active) |
| FBXL19 | 3 | 46.8 (active) |
| HP1BP3 | 1 | 57.3 (active) |
| HP1BP3 | 2 | 66.4 (active) |
| HP1BP3 | 3 | 70.8 (active) |
| PSIP1 | 1 | 66.4 (active) |
| PSIP1 | 2 | 51.1 (active) |
| PSIP1 | 3 | 87.6 |
| DDX60L | 1 | 59.5 (active) |
| DDX60L | 2 | 50.8 (active) |
| DDX60L | 3 | 61.7 (active) |
| MAP3K2 | 1 | 79.6 (active) |
| MAP3K2 | 2 | 69.4 (active) |
| MAP3K2 | 3 | 86.3 |
| CBX7 | 1 | 48.5 (active) |
| CBX7 | 2 | 45 (active) |
| CBX7 | 3 | 98.4 |
| MAPKAPK3 | 1 | 69.1 (active) |
| MAPKAPK3 | 2 | 16 (active) |
| MAPKAPK3 | 3 | 59.9 (active) |
| TEAD4 | 1 | 83.5 |
| TEAD4 | 2 | 72.3 (active) |
| TEAD4 | 3 | 89.2 |
| ALDOA | 1 | 64.2 (active) |
| ALDOA | 2 | 54.9 (active) |
| ALDOA | 3 | 54.6 (active) |
| EPHA8 | 1 | 67 (active) |
| EPHA8 | 2 | 64.3 (active) |
| EPHA8 | 3 | 70.7 (active) |
| CDC14B | 1 | 91.6 |
| CDC14B | 2 | 77.3 (active) |
| CDC14B | 3 | 63.9 (active) |
| ROCK2 | 1 | 78.9 (active) |
| ROCK2 | 2 | 75.7 (active) |
| ROCK2 | 3 | 84.1 |
| RAI1 | 1 | 64.1 (active) |
| RAI1 | 2 | 71.3 (active) |
| RAI1 | 3 | 70.9 (active) |
